Our source for the binding values is publication PMC4439114.

Protein sequences, listed by entry. Tags and fused reporters are not part of them. Residues count along the entry.
UniProt O14763, residues 56-440: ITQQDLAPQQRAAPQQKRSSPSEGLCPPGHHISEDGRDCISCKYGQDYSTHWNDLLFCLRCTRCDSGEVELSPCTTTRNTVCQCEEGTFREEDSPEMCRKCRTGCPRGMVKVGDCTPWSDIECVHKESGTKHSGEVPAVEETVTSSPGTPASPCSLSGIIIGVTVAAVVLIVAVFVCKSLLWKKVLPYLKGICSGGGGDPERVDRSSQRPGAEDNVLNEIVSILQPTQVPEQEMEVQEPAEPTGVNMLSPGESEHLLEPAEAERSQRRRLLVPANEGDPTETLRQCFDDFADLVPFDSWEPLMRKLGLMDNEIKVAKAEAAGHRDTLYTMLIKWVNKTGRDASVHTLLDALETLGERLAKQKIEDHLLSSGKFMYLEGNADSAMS
UniProt Q13158: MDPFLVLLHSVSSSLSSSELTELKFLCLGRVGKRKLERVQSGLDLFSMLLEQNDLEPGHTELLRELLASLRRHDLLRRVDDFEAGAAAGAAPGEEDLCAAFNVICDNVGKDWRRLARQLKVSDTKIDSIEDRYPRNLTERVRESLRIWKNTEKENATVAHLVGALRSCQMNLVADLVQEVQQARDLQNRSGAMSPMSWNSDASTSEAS
UniProt Q13546: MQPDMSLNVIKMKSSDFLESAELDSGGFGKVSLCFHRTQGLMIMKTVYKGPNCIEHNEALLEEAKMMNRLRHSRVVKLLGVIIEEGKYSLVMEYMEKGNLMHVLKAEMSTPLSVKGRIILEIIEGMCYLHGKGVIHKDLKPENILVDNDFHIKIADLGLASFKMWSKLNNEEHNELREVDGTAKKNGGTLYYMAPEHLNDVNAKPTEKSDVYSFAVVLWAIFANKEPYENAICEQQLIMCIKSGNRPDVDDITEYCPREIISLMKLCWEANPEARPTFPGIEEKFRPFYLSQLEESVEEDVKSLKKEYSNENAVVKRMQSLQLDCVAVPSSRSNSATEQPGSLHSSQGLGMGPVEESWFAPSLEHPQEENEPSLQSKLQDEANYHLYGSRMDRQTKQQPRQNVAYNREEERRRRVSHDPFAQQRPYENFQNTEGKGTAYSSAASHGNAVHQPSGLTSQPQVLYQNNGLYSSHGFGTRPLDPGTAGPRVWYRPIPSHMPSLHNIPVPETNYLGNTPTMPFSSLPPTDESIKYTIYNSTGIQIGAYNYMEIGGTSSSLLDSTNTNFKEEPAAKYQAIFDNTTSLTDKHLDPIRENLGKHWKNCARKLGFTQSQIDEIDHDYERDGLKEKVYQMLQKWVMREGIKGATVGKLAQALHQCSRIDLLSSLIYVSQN

These are yes or no findings as the source states them, for the method shown. Binding seen in cells or lysates may run through a third protein. Some entries that bind do so weakly or less than the wild type.

The assay concerns the target death receptor (DR)5 (human (endogenous in L-O2)) (UniProt O14763). In words: co-IP; DR5 immunoprecipitated (DISC isolation) from whole-cell extracts of L-O2 and L-O2-HBx cells 15 min after TRAIL (30 ng/ml), also L-O2-HBx cells transfected with the A20 expression vector or control vector; IP buffer 1% Nonidet P-40, 50 mM Tris-HCl pH 7.4, 50 mM EDTA, 150 mM NaCl; protein A/G plus agarose beads and 5 ug antibody overnight at 4 °C; partners detected by western blot.

Take “Fas-associated death domain (FADD) (from UniProt Q13158 1-208)”: the binding entry was “binds”.

Take “receptor-interacting protein (RIP)1 (from UniProt Q13546 1-671)”: the binding result is “binds”.
